# Test results: paper doi:10.1101/2024.09.11.612445 (bioRxiv, 2024)
# Chains of the proteins cited; added tags and fusions are not shown.
# UniProt A5YKK6: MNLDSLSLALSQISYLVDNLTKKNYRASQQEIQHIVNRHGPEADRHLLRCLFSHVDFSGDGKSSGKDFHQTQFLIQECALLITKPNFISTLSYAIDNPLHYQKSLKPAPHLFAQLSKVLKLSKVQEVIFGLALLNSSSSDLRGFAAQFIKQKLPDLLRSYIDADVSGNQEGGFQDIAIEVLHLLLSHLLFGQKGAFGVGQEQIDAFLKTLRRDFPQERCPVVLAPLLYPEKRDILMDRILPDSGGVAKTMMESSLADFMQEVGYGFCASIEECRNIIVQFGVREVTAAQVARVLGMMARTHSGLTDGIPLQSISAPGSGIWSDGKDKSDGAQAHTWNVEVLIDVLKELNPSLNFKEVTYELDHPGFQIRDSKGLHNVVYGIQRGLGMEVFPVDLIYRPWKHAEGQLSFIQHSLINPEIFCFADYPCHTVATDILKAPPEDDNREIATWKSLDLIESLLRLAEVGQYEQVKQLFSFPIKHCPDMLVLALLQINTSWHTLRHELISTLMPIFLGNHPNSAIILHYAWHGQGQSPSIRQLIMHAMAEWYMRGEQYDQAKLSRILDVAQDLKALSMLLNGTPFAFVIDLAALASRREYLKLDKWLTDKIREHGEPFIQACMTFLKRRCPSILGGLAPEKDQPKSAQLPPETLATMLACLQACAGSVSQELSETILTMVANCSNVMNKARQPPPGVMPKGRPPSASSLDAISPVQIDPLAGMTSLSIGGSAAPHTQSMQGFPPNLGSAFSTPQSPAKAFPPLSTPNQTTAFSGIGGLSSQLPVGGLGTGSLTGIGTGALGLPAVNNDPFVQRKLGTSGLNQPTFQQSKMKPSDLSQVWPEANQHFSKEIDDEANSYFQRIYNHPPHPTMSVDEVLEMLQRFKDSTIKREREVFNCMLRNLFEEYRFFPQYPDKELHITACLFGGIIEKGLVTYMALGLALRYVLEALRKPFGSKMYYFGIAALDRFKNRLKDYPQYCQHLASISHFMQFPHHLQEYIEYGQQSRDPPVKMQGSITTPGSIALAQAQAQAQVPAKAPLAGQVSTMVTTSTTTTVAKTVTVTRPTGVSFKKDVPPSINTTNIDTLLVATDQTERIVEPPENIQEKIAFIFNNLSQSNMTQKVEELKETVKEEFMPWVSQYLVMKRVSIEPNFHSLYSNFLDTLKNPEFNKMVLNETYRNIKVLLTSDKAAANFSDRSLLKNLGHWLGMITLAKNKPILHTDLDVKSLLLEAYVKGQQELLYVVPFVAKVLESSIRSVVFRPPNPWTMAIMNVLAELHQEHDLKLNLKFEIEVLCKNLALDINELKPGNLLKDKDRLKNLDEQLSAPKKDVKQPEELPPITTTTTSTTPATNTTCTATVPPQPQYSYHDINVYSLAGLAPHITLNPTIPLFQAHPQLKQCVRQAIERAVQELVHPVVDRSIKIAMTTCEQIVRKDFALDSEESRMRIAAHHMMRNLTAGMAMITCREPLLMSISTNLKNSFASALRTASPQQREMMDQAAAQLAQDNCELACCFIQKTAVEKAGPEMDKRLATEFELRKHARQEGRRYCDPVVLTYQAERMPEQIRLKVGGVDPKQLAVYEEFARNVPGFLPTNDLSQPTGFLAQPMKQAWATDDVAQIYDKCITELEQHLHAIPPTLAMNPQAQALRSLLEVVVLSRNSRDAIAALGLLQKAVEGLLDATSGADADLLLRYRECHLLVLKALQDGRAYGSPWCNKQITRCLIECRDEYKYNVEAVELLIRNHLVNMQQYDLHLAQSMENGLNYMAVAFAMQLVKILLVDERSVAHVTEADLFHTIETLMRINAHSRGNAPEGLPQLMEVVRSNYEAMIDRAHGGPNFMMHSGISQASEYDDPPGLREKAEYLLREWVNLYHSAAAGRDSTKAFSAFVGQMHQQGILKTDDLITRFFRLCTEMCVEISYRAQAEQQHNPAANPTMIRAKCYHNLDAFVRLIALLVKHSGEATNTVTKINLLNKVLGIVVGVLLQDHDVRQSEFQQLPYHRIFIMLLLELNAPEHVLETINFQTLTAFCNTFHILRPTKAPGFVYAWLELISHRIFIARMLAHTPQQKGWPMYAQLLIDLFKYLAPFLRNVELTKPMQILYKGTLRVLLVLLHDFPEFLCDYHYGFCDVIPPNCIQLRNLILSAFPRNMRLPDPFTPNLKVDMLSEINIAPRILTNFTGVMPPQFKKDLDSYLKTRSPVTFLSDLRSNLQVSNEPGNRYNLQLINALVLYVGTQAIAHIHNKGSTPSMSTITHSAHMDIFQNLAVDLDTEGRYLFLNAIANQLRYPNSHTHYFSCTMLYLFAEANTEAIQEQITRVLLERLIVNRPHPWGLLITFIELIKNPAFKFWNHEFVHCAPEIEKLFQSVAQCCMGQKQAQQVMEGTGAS
# UniProt Q9NZN8: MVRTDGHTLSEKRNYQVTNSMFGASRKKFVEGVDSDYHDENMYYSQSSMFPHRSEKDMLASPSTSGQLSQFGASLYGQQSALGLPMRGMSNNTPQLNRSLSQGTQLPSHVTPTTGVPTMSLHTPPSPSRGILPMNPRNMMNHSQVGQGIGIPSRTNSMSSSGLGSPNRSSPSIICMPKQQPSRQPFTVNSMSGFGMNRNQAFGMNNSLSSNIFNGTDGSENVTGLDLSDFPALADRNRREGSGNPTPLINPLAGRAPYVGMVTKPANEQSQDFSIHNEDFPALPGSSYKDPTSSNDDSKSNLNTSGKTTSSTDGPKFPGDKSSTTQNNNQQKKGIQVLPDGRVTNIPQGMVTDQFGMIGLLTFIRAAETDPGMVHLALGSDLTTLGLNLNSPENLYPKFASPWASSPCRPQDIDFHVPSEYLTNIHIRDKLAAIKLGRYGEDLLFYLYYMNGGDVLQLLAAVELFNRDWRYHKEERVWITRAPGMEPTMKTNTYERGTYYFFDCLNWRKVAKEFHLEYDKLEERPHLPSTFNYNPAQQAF
# UniProt O75175: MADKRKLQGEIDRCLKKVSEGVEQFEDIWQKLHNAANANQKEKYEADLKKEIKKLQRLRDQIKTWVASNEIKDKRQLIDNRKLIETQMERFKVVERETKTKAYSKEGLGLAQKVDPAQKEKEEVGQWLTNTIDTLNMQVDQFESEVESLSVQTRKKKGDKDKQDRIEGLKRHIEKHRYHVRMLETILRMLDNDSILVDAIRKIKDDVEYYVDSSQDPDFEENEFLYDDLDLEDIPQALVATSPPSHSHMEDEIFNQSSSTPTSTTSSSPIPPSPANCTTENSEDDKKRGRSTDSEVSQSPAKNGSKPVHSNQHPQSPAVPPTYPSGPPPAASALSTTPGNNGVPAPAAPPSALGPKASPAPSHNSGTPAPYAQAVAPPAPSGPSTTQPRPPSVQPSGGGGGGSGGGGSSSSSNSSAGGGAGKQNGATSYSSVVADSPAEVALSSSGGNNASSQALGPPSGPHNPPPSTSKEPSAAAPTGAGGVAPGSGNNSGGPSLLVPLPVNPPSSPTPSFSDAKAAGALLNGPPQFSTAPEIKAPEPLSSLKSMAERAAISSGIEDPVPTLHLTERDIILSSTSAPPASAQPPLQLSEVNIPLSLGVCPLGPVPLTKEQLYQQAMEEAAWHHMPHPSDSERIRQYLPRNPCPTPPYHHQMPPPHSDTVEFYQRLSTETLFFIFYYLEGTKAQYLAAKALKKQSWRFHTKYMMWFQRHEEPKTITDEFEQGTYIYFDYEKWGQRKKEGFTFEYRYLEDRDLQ
# Results are given in words; binding and its absence hold for the method and conditions named. Binding seen in cells or lysates may run through a third protein. These calls come from enrichment with a bait or labelling near it, and not all partners need be listed. For part of these data: A no says only that the protein was not detected with the bait. For part of these data: Sequences can lack the tags named with a protein.
# T1: YFP-ANKRD17 1950-2603 motif mutant (AAAAAAA 2425-2431) (human) (UniProt O75179)
# T1 sequence: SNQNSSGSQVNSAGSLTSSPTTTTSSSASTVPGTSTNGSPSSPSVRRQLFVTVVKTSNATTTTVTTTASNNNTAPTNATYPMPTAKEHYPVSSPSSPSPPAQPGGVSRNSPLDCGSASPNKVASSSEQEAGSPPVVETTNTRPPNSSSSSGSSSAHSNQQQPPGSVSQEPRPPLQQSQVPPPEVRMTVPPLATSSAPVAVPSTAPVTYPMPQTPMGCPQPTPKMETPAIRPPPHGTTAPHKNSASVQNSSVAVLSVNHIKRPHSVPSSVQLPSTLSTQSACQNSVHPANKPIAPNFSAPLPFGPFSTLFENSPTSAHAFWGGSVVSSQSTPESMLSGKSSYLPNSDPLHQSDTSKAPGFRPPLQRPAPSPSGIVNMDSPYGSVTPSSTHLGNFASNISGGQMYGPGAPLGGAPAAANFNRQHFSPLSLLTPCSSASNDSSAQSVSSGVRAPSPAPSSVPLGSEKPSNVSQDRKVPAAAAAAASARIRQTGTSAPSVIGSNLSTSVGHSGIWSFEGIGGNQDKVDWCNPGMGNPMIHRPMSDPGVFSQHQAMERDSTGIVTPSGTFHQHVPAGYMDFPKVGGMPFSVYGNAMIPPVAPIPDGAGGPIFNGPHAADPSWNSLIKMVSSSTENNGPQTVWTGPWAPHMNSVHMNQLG
# T2: YFP-ANKRD17 1950-2603 wild-type (human) (UniProt O75179)
# T2 sequence: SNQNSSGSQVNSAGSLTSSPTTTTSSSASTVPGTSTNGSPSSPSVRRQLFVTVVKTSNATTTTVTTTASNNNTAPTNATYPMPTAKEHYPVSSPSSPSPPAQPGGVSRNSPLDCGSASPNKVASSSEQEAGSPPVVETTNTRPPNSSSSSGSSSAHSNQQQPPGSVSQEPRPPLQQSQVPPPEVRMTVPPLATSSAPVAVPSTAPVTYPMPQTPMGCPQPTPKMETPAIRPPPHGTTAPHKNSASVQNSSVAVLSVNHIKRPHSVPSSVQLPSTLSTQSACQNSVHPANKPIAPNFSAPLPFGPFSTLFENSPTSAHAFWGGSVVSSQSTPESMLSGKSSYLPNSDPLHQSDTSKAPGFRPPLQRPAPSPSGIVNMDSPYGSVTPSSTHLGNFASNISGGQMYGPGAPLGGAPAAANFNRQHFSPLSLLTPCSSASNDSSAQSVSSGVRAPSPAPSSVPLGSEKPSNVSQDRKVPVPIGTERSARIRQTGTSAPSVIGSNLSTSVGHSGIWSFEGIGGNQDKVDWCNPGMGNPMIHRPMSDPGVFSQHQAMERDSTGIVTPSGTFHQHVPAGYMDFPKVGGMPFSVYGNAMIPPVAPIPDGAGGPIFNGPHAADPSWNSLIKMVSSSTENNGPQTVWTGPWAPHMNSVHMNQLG
# T3: YFP-tagged WDR33 1-525 wild-type (human) (UniProt Q9C0J8)
# T3 sequence: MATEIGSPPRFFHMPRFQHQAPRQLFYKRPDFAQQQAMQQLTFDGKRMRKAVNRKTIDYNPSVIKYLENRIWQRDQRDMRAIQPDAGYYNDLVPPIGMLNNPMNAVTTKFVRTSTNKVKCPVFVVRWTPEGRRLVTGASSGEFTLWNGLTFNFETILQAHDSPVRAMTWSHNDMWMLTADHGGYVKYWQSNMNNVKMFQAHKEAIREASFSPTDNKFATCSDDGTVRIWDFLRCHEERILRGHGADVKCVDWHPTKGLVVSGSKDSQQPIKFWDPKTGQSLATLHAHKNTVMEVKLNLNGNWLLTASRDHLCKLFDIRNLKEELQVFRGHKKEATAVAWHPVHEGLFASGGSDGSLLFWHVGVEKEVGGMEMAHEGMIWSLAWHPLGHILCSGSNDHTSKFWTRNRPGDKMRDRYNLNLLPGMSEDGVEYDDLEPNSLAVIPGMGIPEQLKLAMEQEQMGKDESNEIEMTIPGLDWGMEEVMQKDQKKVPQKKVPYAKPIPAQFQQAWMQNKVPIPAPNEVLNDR
# T4: YFP-tagged full length CPSF1 wild-type (Cleavage and polyadenylation specificity factor subunit 1) (human) (UniProt Q10570)
# T4 sequence: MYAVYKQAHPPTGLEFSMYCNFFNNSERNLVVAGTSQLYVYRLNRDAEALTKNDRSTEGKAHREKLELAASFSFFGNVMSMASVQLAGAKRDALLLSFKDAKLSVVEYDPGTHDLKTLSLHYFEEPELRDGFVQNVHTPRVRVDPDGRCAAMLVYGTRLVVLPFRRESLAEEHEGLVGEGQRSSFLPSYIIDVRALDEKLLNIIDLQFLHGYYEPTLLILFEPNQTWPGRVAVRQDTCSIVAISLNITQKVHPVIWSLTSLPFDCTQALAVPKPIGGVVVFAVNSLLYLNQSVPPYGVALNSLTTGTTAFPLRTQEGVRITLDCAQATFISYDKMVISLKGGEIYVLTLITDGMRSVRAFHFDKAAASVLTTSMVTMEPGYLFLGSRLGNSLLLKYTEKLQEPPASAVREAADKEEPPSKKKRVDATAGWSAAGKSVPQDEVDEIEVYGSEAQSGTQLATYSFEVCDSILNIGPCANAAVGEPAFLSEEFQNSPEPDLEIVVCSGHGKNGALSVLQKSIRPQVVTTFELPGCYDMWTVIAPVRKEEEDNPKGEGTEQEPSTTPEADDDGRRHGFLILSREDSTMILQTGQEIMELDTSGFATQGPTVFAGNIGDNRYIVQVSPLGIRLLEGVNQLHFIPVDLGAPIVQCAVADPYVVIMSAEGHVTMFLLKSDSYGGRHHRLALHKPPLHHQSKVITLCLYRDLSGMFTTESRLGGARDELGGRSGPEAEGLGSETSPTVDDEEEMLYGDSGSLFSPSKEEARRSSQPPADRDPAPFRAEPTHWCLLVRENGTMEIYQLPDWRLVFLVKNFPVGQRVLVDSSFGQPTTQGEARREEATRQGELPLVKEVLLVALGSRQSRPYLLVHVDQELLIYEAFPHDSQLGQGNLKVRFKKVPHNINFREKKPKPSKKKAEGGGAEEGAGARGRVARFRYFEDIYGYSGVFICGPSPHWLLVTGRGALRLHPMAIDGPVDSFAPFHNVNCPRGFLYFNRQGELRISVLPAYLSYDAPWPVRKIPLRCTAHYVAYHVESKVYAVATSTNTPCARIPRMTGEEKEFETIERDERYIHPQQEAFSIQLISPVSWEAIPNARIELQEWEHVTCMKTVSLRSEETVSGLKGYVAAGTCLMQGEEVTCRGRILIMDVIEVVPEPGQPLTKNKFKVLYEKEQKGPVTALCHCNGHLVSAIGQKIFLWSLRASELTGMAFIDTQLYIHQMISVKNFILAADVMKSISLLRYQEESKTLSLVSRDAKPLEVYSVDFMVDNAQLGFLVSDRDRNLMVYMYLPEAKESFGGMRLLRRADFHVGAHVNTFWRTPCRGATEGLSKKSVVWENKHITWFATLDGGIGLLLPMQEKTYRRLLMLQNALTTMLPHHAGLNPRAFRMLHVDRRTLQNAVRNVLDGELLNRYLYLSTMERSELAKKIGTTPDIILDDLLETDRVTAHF
# Tests used:
# Assay in all cases: affinity purification with mass spectrometry
# [1] = target: T1, YFP-ANKRD17 1950-2603 motif mutant (AAAAAAA 2425-2431) (human)
# [2] = target: T2, YFP-ANKRD17 1950-2603 wild-type (human)
# [3] = target: YFP-tagged WDR33 1-525 motif mutant (all three motifs mutated) (human) (UniProt Q9C0J8)
# [4] = target: T3, YFP-tagged WDR33 1-525 wild-type (human)
# [5] = target: T4, YFP-tagged full length CPSF1 wild-type (Cleavage and polyadenylation specificity factor subunit 1) (human)
Molecule,binding [1],binding [2],binding [3],binding [4],binding [5]
"CNOT1, endogenous (from UniProt A5YKK6 1-2376)",no binding,binds,,,
"CNOT2, endogenous (from UniProt Q9NZN8 1-540)",no binding,binds,,,
"Cleavage stimulation factor subunit 3 (CSTF3), endogenous (protein, UniProt Q12996 1-717) MSGDGATEQAAEYVPEKVKKAEKKLEENPYDLDAWSILIREAQNQPIDKARKTYERLVAQFPSSGRFWKLYIEAEIKAKNYDKVEKLFQRCLMKVLHIDLWKCYLSYVRETKGKLPSYKEKMAQAYDFALDKIGMEIMSYQIWVDYINFLKGVEAVGSYAENQRITAVRRVYQRGCVNPMINIEQLWRDYNKYEEGINIHLAKKMIEDRSRDYMNARRVAKEYETVMKGLDRNAPSVPPQNTPQEAQQVDMWKKYIQWEKSNPLRTEDQTLITKRVMFAYEQCLLVLGHHPDIWYEAAQYLEQSSKLLAEKGDMNNAKLFSDEAANIYERAISTLLKKNMLLYFAYADYEESRMKYEKVHSIYNRLLAIEDIDPTLVYIQYMKFARRAEGIKSGRMIFKKAREDTRTRHHVYVTAALMEYYCSKDKSVAFKIFELGLKKYGDIPEYVLAYIDYLSHLNEDNNTRVLFERVLTSGSLPPEKSGEIWARFLAFESNIGDLASILKVEKRRFTAFKEEYEGKETALLVDRYKFMDLYPCSASELKALGYKDVSRAKLAAIIPDPVVAPSIVPVLKDEVDRKPEYPKPDTQQMIPFQPRHLAPPGLHPVPGGVFPVPPAAVVLMKLLPPPICFQGPFVQVDELMEIFRRCKIPNTVEEAVRIITGGAPELAVEGNGPVESNAVLTKAVKRPNEDSDEDEEKGAVVPPVHDIYRARQQKRIR",,,no binding,binds,binds

# Other lines, results leading:
binding [1],binding [2],binding [3],binding [4],binding [5],Molecule
no binding,binds,,,,"CNOT3, endogenous (from UniProt O75175 1-753)"
,,no binding,binds,binds,"Cleavage Stimulation Factor complex subunit CSTF1, endogenous (protein, UniProt Q05048 1-431) MYRTKVGLKDRQQLYKLIISQLLYDGYISIANGLINEIKPQSVCAPSEQLLHLIKLGMENDDTAVQYAIGRSDTVAPGTGIDLEFDADVQTMSPEASEYETCYVTSHKGPCRVATYSRDGQLIATGSADASIKILDTERMLAKSAMPIEVMMNETAQQNMENHPVIRTLYDHVDEVTCLAFHPTEQILASGSRDYTLKLFDYSKPSAKRAFKYIQEAEMLRSISFHPSGDFILVGTQHPTLRLYDINTFQCFVSCNPQDQHTDAICSVNYNSSANMYVTGSKDGCIKLWDGVSNRCITTFEKAHDGAEVCSAIFSKNSKYILSSGKDSVAKLWEISTGRTLVRYTGAGLSGRQVHRTQAVFNHTEDYVLLPDERTISLCCWDSRTAERRNLLSLGHNNIVRCIVHSPTNPGFMTCSDDFRARFWYRRSTTD"
